Test results from PubChem BioAssay AID2685 (National Center for Advancing Translational Sciences (NCATS), 2010).
The other results are listed elsewhere or left out. Further columns of the screen follow, without active or inactive calls. The list favours compounds with an active or inconclusive main result. The note in brackets gives the kind of curve behind each potency; many fits are weak. Where a SMILES comes first, the peptide text is derived from it. [ ]: non-standard residue; d: D form. The star is where a group is joined. ξ: configuration not given here. Cbz = O=C(OCc1ccccc1)*; ξL = CC(C)CC(N)C(=O)O; ξP = O=C(O)C1CCCN1

Experiment: qHTS Assay for Lipid Storage Modulators in Drosophila S3 Cells;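 as to cell number change: cells counted by Cell Tracker Red CMTPX staining in the red channel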
Conditions: BODIPY lipid droplet fluorescence, 18-24 h; for cell number change: measured here: cell count max response, cells fed with added oleic acid
Summary of the method: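 Drosophila S3 cells loaded with oleic acid (400 uM, as added) and compounds at several concentrations; lipid droplets imaged by 488-nm laser-scanning cytometry, 500–530 nm intensity and object ratio to cell channel. Percent activity normalized to 20 uM Triacsin C.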

[1] = measured here: cell number channel AC50, cells fed with added oleic acid
[2] = measured here: lipid fluorescence (Fed channel) AC50, cells fed with added oleic acid

Compound	cell number change [%]	AC50 [1]	AC50 [2]
Cc1ccc(C(=O)COC(=O)CCCC(=O)NC2CCCCC2)cc1[N+](=O)[O-]	6.03	–	–
CCOC(=O)N1CCC(NC(=O)Cn2nc(Cc3ccncc3)c3ccccc3c2=O)CC1	-41	32.6 µM [falling, partial curve, poor fit]	32.6 µM [falling, partial curve]
COc1cccc(/C=N/NC(=O)c2cc3c(OC)cccc3[nH]2)c1O	–	6.51 µM [falling, single point]	–
CCOc1ccc(N(C(=O)c2ccc(S(=O)(=O)N3CCCC3)cc2)C2C=CS(=O)(=O)C2)cc1 (centres undefined)	-4.31	–	–
CN(CC(=O)Oc1ccc(-c2nnco2)cc1)S(=O)(=O)c1ccc(F)cc1	-4.5	–	0.13 µM [falling, full curve, poor fit]
O=C(CSc1nnc(-c2cccnc2)s1)Nc1ccnc2ccccc12	-52.8	3.26 µM [falling, partial curve]	4.11 µM [falling, partial curve]
COc1cc(NC(=O)c2ccccc2OCc2ccccc2)cc(OC)c1OC	6.48	–	25.9 µM [falling, single point]
Fc1ccc(CO/N=C2\CCCc3nonc32)cc1	-59.5	–	32.6 µM [falling, partial curve, poor fit]
COC(=O)c1cc(C(=O)NCC2CCCCC2)cc([N+](=O)[O-])c1	–	2.59 µM [rising, single point]	–
COc1ccc(C2=NN(c3ccc(C=O)cc3)C(c3ccccc3)C2)cc1 (centres undefined)	0.901	–	–
CN(C(=O)CSc1nc2c(c(=O)[nH]1)CCCC2)C1CCCCC1	–	1.3 µM [falling, full curve]	0.13 µM [falling, full curve, poor fit]
COc1ccc(OC)c(-c2csc(NC(=O)C3=COCCO3)n2)c1	–	1.84 µM [rising, partial curve]	–
O=C(O)c1cccc(N2CCCC2)c1	-0.79	–	29.1 µM [falling, partial curve, poor fit]
CC(C)NC(=S)N1CCN(C/C=C/c2ccccc2)CC1	–	–	0.651 µM [rising, partial curve, poor fit]
Cc1ccc(S(=O)(=O)NCCN2CCOCC2)cc1	8.42	0.116 µM [rising, full curve, poor fit]	0.103 µM [rising, partial curve, poor fit]
COc1ccc(NC(C)C(=O)N/N=C/c2ccccc2OCc2cccc(Br)c2)cc1 (centres undefined)	-6.69	–	0.082 µM [rising, full curve, poor fit]
CC(C)CC(NC(=O)C1CCCN1C(=O)[C@@H](C)NC(=O)OCc1ccccc1)C(=O)NCC(N)=O (some centres undefined) (Cbz-[dA][ξP][ξL]G-NH2)	-27.8	–	29.1 µM [rising, partial curve, poor fit]
CCOC(=O)C(NC(=O)c1ccc(OC)cc1)(Nc1cc(C)on1)C(F)(F)F (centres undefined)	-1.69	–	2.06 µM [rising, partial curve]
Cn1cnnc1SCC(=O)NC(=O)NC1CCCC1	8.71	–	6.51 µM [falling, single point]
CC1(C)CC(=O)C(C(c2ccc(F)cc2)C2C(=O)CC(C)(C)CC2=O)C(=O)C1	-3.19	–	6.51 µM [falling, single point]

Record cards, from the list above. Order of values: cell number change [%] | AC50 [1] | AC50 [2]
`COC(=O)c1cc(C(=O)NCC2CCCCC2)cc([N+](=O)[O-])c1` as listed: – | 2.59 µM [rising, single point] | –
`O=C(O)c1cccc(N2CCCC2)c1` as listed: -0.79 | – | 29.1 µM [falling, partial curve, poor fit]

(further entries)

Compound	cell number change [%]	AC50 [1]	AC50 [2]
CC(C)NCCCOc1ccc(C(C)(C)c2ccccc2)cc1	-55.3	29.1 µM [falling, single point]	5.17 µM [falling, full curve]
CCc1ccc(-c2cc(C(=O)Nc3c(C)n(C)n(-c4ccccc4)c3=O)c3ccccc3n2)s1	-2.93	–	–
COc1ccccc1/C=C/C(=O)c1ccc(Cl)cc1	–	–	6.51 µM [falling, single point]
N#Cc1c(-c2ccco2)ccn(Cc2cccc(F)c2)c1=O	25.9	–	6.51 µM [falling, single point]
COc1cc(OC)cc(C(=O)NCC2CCCN(C(=O)c3csc(C(C)C)n3)C2)c1 (centres undefined)	-17.3	–	–
COc1cccc(-c2c(NC(C)=O)n(C)c3ccccc3c2=O)c1	-14.4	–	–
O=C(CSc1nc(-c2ccccc2)cs1)Nc1nccs1	-49.1	14.6 µM [falling, partial curve, poor fit]	–
CCc1[nH]c(=O)[nH]c1C(C)S(=O)(=O)c1ccc(C)cc1 (centres undefined)	-39.5	7.31 µM [falling, partial curve, poor fit]	18.4 µM [falling, partial curve]
O=C(O)CN1CCCCCC1=O	113	–	–
COc1ccc(Br)cc1CN(C)C(=O)Cc1ccc(OC)c(S(=O)(=O)N2CCOCC2)c1	–	–	18.4 µM [falling, partial curve]
Cc1oc(-c2cccc3ccccc23)nc1CN1CCN(c2ncnc3ccccc23)CC1	-28.7	–	29.1 µM [falling, single point]
CCc1ccc(NC(=O)c2ccc(-n3cncn3)c([N+](=O)[O-])c2)cc1	25.5	–	–
C=CCC1NS(=O)(=O)OCC1C(C)C (centres undefined)	26.2	–	29.1 µM [rising, single point]
CCC1=Nc2cc(C(=O)NCCCN3CCOCC3)ccc2Sc2ccccc21	8.96	–	20.6 µM [rising, single point]
O=C(O)c1ccccc1C(=O)Nc1c(-c2ccccc2)nc2ccccn12	-0.549	–	–
COc1ccc(CCNC(=O)COC(=O)C23CC4CC(CC(Br)(C4)C2)C3)cc1	-37.2	23.1 µM [falling, partial curve]	0.13 µM [falling, full curve, poor fit]
O=C(O)c1cccc(NC(=O)c2cccc(S(=O)(=O)N3CCCCC3)c2)c1	-36	29.1 µM [falling, single point]	16.4 µM [falling, single point]
COc1ccccc1CNC(=O)COC(=O)CNS(=O)(=O)c1ccc(C)cc1	21.6	–	–
COc1ccc(CC(=O)N/N=C(\C)CC(=O)Nc2cccc(F)c2)cc1	-27.6	–	–
O=C(CNS(=O)(=O)/C=C/c1ccccc1)OC1CCOC1=O (centres undefined)	-13.4	–	–
